Test results taken from PubChem BioAssay AID340 (DTP/NCI, 2004).
The list shows only some results of the screen, not a fair sample: it gathers tests that were run many times, whatever their T/C, doses with no T/C, and many T/C values between a quarter and a half above the control. Further doses and runs are listed elsewhere. T/C: endpoint of the treated group in % of that of the vehicle group. Some doses have a count of surviving animals in place of a T/C: the source files T/C as zero there, which appears to mark a toxic dose or a test without result, not a measured value. Some doses without a T/C left all or most animals alive at the check, yet need not have been tolerated: the source hardly ever lists a survival T/C far under the control, and the zero likely stands for such cases as well. Survivors were counted at the toxicity check, usually on the fifth day, unless a day is given; later deaths do not show. Schedule codes are those of the source, taken here to give the interval after Q, in days (D) or hours (H), and the number of doses after X. Some entries were tested several times; the values are given in rising order. For survival time, this PubChem deposit counts one and a half times the control or more as active, and values a quarter to a half above the control carry no call in these data; other NCI protocols may use other cut-offs. Marks such as (2×) count equal records among those shown. Some T/C values are followed by the survivors on the day toxicity was checked, most often the fifth; without a count, all were alive then.

Tested on: CD2F1 mice, ip reticulum cell sarcoma, survival T/C
Assay: NCI In Vivo Anticancer Drug Screen. Data for tumor model Reticulum Cell Sarcoma (Kelley Mouse) (intraperitoneal) in CD2F1 (CDF1) mice
Settings: T/C endpoint: median survival time, schedule: Q01DX010 (ip), higher T/C = longer survival
Method: The antitumor activity of compounds was measured in mice bearing transplantable tumors. Survival or tumor size were measured and the results are expressed as the measurement made in the treated group (T) divided by the measurement made in the vehicle treated control group (C). The tumor model used in this assay is Reticulum Cell Sarcoma (Kelley Mouse) (intraperitoneal) in CD2F1 (CDF1) mice

[1] = dose: 8.0 mg/kg/injection, vehicle: other
[2] = dose: 20.0 mg/kg/injection, vehicle: saline
[3] = dose: 31.3 mg/kg/injection, vehicle: saline
[4] = dose: 8.0 mg/kg/injection, vehicle: saline
[5] = dose: 16.0 mg/kg/injection, vehicle: saline
[6] = dose: 4.0 mg/kg/injection, vehicle: other
[7] = dose: 64.0 mg/kg/injection, vehicle: saline
[8] = dose: 25.0 mg/kg/injection, vehicle: saline
[9] = dose: 10.0 mg/kg/injection, vehicle: saline
[10] = dose: 0.5 mg/kg/injection, vehicle: saline
[11] = dose: 4.0 mg/kg/injection, vehicle: saline
[12] = dose: 50.0 mg/kg/injection, vehicle: saline
[13] = dose: 100.0 mg/kg/injection, vehicle: saline
[14] = dose: 0.03 mg/kg/injection, vehicle: saline
[15] = dose: 0.25 mg/kg/injection, vehicle: saline
[16] = dose: 90.0 mg/kg/injection, vehicle: saline

O=C(Nc1ccc(C2=NCCN2)cc1)c1ccc(C(=O)Nc2ccc(C3=NCCN3)cc2)c(Cl)c1
T/C [1]: 142 % of control | survivor count (dose: 32.0 mg/kg/injection, vehicle: other): 6 of 6

OCC1OC(n2cnc3c(=S)nc[nH]c32)C(O)C1O (stereo not drawn)
T/C [2]: 137 % of control | T/C (dose: 160.0 mg/kg/injection, vehicle: saline): 141 % of control

CS(=O)(=O)OCCCl
T/C (dose: 9.4 mg/kg/injection, vehicle: saline): 125 % of control | T/C (dose: 18.8 mg/kg/injection, vehicle: saline): 128 % of control | T/C (dose: 75.0 mg/kg/injection, vehicle: saline): 125 % of control | survivor count (dose: 150.0 mg/kg/injection, vehicle: saline): 3 of 6

Nc1c(Br)cc2c(c1Br)Cc1cc([N+](=O)[O-])ccc1-2
survivor count [3]: 5 of 6 | survivor count (dose: 250.0 mg/kg/injection, vehicle: saline): 5 of 6

C1CN1c1nc(N2CC2)nc(N2CC2)n1
survivor count (dose: 1.0 mg/kg/injection, vehicle: saline): 6 of 6 | survivor count (dose: 2.0 mg/kg/injection, vehicle: saline): 4 of 6

CN(C)/N=N/c1nc[nH]c1C(N)=O
T/C (dose: 200.0 mg/kg/injection, vehicle: saline): 128 and 132 % of control

O=C(Nc1ccc(C2=NCCN2)cc1)c1cccc(C(=O)Nc2ccc(C3=NCCN3)cc2)c1
T/C [4]: 134 % of control | T/C [5]: 126 % of control | T/C (dose: 32.0 mg/kg/injection, vehicle: saline): 144 % of control

O=C(Nc1ccc(C2=NCCCN2)cc1)c1ccc(C(=O)Nc2ccc(C3=NCCCN3)cc2)cc1
survivor count (dose: 2.0 mg/kg/injection, vehicle: other): 4 of 6 | survivor count [6]: 6 of 6 | survivor count [1]: 5 of 6

N#CCSc1ncnc2nc[nH]c12
survivor count (dose: 120.0 mg/kg/injection, vehicle: saline): 0 of 6 | survivor count (dose: 240.0 mg/kg/injection, vehicle: saline): 0 of 6

Nc1nc(SCc2ccccc2)c2[nH]cnc2n1
T/C [5]: 129 % of control | T/C [7]: 133 % of control

O=C(O)CCCc1ccc(N(CCCl)CCCl)cc1
survivor count (dose: 3.13 mg/kg/injection, vehicle: saline): 3 of 6 | survivor count [8]: 0 of 6

O=c1[nH]c(=O)n(C2CC(O)C(CO)O2)cc1F (stereo not drawn)
T/C [9]: 131 % of control

CS(=O)(=O)OCCN(CCOS(C)(=O)=O)c1ccc(N=O)cc1
T/C [10]: 127 and 130 % of control | survivor count [11]: 6 of 6 | T/C (dose: 125.0 micrograms/kg/injection, vehicle: saline): 141 % of control

O=C(O)c1[nH]c(=O)[nH]c(=O)c1F
survivor count [2]: 7 of 7

Nc1nc(=S)c2ncn(C3OC(CO)C(O)C3O)c2[nH]1 (stereo not drawn)
T/C [4]: 128 % of control

Nc1nc2n[nH]nc2c(=O)[nH]1
T/C (dose: 25.0 mg/kg/injection, vehicle: alkali diluted with saline): 126 and 136 % of control | T/C (dose: 50.0 mg/kg/injection, vehicle: alkali diluted with saline): 134 % of control (2×) | T/C (dose: 100.0 mg/kg/injection, vehicle: alkali diluted with saline): 131 and 142 % of control

CS(=O)(=O)OCCC(=O)N1CCN(C(=O)CCOS(C)(=O)=O)CC1
T/C [8]: 126 and 130 % of control [5 of 6 alive] | T/C [12]: 141 % of control | T/C [13]: 133 % of control

CC[C@]1(O)C[C@H]2CN(CCc3c([nH]c4ccccc34)[C@@](C(=O)OC)(c3cc4c(cc3OC)N(C=O)[C@H]3[C@@](O)(C(=O)OC)[C@H](OC(C)=O)[C@]5(CC)C=CCN6CC[C@]43[C@@H]65)C2)C1
T/C [14]: 89, 97, 115 % of control | survivor count [14]: 6 of 6 | T/C (dose: 0.06 mg/kg/injection, vehicle: saline): 87, 100, 108, 111 % of control | T/C (dose: 0.12 mg/kg/injection, vehicle: saline): 88, 100, 102, 104 % of control | T/C [15]: 91 and 98 % of control | survivor count [15]: 6 of 6 | T/C [10]: 92 % of control | survivor count [10]: 4 of 6 and 6 of 6

C[C@@H]1C[C@@H]([C@H](O)CC2CC(=O)NC(=O)C2)C(=O)[C@@H](C)C1
T/C [2]: 127 % of control

CCN(CCNc1ccc(C)c2sc3cc(Cl)ccc3c(=O)c12)CC(C)O (stereo not drawn)
survivor count [3]: 7 of 7 | survivor count (dose: 62.5 mg/kg/injection, vehicle: saline): 6 of 6 | survivor count (dose: 500.0 mg/kg/injection, vehicle: saline): 3 of 6

O=C(Nc1ccc(NC2=NCCN2)cc1)c1ccc(C(=O)Nc2ccc(NC3=NCCN3)cc2)cc1
T/C [11]: 147 % of control

CCN(CC)CCNc1ccc(C)c2sc3ccccc3c(=O)c12
T/C [12]: 131 and 137 % of control | T/C [13]: 128 % of control

CC(CCC(C)OS(C)(=O)=O)OS(C)(=O)=O (stereo not drawn)
survivor count [7]: 6 of 6

O=P1(N(CCCl)CCCl)NCCCO1 (stereo not drawn)
T/C (dose: 11.3 mg/kg/injection, vehicle: saline): 93, 97 (2×), 105 % of control | T/C (dose: 22.5 mg/kg/injection, vehicle: saline): 94, 107, 118, 120 % of control | T/C (dose: 45.0 mg/kg/injection, vehicle: saline): 107, 126, 130, 151 % of control | T/C [16]: 87 % of control | survivor count [16]: 5 of 6 and 6 of 6 | survivor count (dose: 180.0 mg/kg/injection, vehicle: saline): 6 of 6

CN(C)[C@@H]1C(=O)C(C(N)=O)=C(O)[C@@]2(O)C(=O)C3=C(O)c4c(O)cccc4C[C@H]3C[C@@H]12
survivor count (dose: 60.0 mg/kg/injection, vehicle: saline): 4 of 6

Cc1cc(N(CCCl)CCCl)ccc1N=Nc1ccccc1C(=O)O
T/C [9]: 132 % of control | survivor count (dose: 40.0 mg/kg/injection, vehicle: saline): 6 of 6 | survivor count (dose: 80.0 mg/kg/injection, vehicle: saline): 4 of 6

O=C(Nc1ccc(C2=NCCCN2)cc1)c1ccc(NC(=O)c2ccc(C3=NCCCN3)cc2)cc1
T/C (dose: 1.0 mg/kg/injection, vehicle: other): 131 % of control | T/C [6]: 148 % of control | survivor count [1]: 6 of 6 | survivor count (dose: 16.0 mg/kg/injection, vehicle: other): 1 of 6 and 2 of 6

O=C(Nc1ccc(C2=NCCN2)cc1)c1ccc(C(=O)Nc2ccc(C3=NCCN3)cc2)c([N+](=O)[O-])c1
T/C (dose: 6.0 mg/kg/injection, vehicle: saline): 139 % of control
